Measurements as given in PMC10897158.
Substitutions are numbered along the chain they refer to. Results are given in words; binding and its absence hold for the method and conditions named. Binding seen in cells or lysates may run through a third protein. Some entries that bind do so weakly or less than the wild type. Where a sequence is shown, tags or fusion partners need not be part of it.

Key:
HA-UBA6 mut (4Ala) = target: T1, HA-UBA6 mut (4Ala) (UniProt A0AVT1); test: co-IP; HA-tagged UBA constructs co-transfected with FLAG-USE1 or GFP-polyAla (19Ala) into HEK293T cells; immunoprecipitation with anti-HA; blot with anti-FLAG, anti-HA, anti-GFP
T1 sequence: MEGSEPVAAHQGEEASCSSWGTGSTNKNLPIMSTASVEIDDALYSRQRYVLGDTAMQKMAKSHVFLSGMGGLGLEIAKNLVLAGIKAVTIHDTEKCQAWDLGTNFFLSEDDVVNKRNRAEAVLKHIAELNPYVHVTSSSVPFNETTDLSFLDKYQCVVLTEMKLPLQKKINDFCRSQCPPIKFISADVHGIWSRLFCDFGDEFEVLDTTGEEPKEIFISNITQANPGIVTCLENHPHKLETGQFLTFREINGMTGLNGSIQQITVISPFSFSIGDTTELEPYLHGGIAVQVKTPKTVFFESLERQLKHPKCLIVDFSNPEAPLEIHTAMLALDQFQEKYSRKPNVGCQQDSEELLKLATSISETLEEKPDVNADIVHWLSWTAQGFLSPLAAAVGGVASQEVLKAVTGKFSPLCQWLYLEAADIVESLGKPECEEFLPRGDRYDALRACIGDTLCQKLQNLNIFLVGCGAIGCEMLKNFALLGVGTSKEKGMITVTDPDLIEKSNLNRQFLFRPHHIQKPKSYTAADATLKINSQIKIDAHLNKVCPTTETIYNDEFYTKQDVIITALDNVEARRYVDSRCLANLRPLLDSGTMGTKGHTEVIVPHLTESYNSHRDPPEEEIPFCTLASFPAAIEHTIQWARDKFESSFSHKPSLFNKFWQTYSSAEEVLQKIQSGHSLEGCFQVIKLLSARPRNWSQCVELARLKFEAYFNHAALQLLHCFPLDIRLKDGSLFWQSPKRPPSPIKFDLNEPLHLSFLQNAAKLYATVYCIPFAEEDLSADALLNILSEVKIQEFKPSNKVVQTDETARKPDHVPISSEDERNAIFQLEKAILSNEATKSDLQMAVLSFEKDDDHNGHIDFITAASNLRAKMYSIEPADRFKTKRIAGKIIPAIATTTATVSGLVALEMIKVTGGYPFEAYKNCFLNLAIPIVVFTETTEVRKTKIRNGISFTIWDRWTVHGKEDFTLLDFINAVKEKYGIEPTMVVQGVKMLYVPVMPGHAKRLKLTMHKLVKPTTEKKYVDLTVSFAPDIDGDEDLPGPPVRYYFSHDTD

HA-UBA6 mut (4Asp) = target: T2, HA-UBA6 mut (4Asp) (UniProt A0AVT1); test: as above
T2 sequence: T1 sequence with A628D, A691D, A709D, A714D

[1] = target: T3, HA-tagged UBA6 wild type (pcDNA3.1-HA-UBA6) (UniProt A0AVT1); test: as above
T3 sequence: T1 sequence with A628K, A691R, A709K, A714K

[2] = target: T4, E1 ubiquitin-activating enzyme UBA6 (endogenous) (human (endogenous in HEK293T, human fibroblasts and iPSC-derived neurons)) (UniProt A0AVT1); test: co-IP; whole-cell lysates of transfected HEK293T cells; immunoprecipitation of endogenous UBA6 with anti-UBA6; IP buffer 20 mM Tris-HCl pH 7.2, 150 mM NaCl, 2 mM MgCl2, 0.5% NP-40; pre-clearing with beads for isolated polyalanine stretches
T4 sequence: T1 sequence with A628K, A691R, A709K, A714K

- binding (HA-UBA6 mut (4Ala)): binds
- binding (HA-UBA6 mut (4Asp)): binds
- binding [1]: binds
- binding [2]: binds
Binder: AAAAAAAAAAAAAAAAAAA [GFP-polyAla (19Ala), isolated polyalanine stretch without NLS]
